Article PMC12858073
No constants are given. Whether binding was seen depends on the method and setting. In cells and extracts the contact can be indirect. These calls come from enrichment with a bait or labelling near it, and not all partners need be listed.

Sequences of proteins named here, by UniProt entry; tags and fusion partners are left off.
UniProt Q62167: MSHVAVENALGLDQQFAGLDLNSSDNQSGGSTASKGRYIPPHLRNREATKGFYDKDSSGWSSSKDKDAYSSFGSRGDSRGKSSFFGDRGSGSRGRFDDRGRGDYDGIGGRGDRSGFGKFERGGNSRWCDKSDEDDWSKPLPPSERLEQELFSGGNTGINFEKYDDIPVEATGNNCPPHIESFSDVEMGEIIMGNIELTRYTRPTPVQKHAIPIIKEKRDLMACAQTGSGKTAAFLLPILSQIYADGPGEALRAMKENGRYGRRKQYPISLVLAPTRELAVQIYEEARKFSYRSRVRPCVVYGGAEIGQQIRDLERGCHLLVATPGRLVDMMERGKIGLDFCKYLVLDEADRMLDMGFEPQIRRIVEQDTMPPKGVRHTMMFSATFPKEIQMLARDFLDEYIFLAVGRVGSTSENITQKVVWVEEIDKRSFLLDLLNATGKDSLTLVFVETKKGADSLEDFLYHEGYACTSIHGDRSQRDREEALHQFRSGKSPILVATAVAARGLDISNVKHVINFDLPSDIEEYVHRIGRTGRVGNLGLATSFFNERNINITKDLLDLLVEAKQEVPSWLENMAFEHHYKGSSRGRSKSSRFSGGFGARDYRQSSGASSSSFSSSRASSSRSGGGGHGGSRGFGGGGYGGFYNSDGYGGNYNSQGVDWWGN
UniProt Q9CQF3: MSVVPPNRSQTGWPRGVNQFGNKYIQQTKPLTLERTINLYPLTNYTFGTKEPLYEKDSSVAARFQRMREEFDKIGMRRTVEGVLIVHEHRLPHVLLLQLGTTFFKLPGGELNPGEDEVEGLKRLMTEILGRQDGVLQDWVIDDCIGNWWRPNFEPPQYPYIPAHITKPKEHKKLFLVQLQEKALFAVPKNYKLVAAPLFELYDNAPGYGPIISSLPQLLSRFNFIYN
UniProt Q6NZF1: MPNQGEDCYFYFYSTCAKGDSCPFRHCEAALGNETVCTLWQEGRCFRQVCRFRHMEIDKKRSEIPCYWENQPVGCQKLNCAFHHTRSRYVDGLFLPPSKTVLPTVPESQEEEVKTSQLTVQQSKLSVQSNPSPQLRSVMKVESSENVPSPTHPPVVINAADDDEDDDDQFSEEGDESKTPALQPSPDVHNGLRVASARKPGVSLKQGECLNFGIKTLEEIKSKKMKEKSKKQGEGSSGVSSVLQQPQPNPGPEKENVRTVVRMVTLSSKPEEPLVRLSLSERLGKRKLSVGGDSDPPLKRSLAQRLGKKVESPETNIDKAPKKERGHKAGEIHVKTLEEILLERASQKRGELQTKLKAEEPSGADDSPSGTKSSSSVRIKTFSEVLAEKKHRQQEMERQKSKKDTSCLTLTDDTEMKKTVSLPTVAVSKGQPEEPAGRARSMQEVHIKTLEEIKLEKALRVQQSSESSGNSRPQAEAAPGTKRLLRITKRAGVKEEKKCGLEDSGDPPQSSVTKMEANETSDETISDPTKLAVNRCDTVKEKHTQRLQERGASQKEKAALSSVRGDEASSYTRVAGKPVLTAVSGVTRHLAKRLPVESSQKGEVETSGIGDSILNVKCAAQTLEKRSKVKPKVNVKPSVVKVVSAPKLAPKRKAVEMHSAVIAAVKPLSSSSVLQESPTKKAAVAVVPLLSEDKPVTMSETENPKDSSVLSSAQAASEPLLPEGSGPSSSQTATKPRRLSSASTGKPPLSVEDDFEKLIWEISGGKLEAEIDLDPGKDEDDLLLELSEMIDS
UniProt Q80U93: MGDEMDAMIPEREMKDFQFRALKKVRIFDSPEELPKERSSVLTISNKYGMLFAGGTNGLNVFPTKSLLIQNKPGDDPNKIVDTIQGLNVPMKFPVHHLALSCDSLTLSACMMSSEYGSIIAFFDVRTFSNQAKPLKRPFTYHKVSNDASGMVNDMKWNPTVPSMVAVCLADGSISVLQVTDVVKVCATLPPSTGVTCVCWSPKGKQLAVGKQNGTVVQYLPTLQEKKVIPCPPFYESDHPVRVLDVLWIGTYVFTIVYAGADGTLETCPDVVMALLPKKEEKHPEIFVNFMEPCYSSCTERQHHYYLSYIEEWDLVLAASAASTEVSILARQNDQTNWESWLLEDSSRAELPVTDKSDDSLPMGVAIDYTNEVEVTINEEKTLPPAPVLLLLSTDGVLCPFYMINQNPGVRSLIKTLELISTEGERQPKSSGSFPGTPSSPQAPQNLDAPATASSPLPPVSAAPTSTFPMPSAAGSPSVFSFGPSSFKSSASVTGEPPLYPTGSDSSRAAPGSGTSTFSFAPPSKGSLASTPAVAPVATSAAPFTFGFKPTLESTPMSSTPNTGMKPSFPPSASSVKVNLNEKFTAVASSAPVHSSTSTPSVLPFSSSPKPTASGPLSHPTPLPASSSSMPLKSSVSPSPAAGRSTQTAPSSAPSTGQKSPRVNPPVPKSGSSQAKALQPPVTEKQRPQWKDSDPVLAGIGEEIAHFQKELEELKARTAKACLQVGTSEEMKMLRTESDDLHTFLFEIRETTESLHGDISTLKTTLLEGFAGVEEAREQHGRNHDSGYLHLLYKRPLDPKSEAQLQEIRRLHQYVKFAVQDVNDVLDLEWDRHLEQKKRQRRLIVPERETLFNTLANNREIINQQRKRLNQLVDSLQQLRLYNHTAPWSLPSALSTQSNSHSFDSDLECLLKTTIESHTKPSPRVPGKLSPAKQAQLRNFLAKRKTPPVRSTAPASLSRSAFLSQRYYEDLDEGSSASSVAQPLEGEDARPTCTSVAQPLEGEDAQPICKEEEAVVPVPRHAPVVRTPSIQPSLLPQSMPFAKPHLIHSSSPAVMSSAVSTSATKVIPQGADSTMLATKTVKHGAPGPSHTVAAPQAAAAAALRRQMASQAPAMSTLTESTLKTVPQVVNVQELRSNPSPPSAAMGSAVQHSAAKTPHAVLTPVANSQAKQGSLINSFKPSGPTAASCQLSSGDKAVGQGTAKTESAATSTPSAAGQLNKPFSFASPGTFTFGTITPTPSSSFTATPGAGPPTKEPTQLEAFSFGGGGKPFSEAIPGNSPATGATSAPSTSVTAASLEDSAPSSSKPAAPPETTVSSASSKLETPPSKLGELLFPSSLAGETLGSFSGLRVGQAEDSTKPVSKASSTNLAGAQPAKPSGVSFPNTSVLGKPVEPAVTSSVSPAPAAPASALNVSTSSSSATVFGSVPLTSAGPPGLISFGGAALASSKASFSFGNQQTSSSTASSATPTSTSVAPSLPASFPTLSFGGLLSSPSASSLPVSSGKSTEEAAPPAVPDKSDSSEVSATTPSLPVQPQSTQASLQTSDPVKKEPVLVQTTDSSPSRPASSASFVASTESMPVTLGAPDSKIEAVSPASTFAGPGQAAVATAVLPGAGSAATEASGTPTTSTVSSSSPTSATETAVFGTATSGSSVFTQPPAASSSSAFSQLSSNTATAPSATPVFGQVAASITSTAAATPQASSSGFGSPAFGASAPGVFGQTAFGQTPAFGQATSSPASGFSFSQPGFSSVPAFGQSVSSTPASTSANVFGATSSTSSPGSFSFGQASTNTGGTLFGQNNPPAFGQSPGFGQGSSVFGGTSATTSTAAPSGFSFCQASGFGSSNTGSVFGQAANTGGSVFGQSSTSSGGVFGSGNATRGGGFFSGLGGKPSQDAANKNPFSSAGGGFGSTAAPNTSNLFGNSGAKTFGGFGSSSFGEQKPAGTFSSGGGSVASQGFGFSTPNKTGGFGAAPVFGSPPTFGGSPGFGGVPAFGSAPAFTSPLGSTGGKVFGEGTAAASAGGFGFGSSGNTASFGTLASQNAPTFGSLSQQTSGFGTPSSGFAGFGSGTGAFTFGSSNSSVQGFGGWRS

T1: Ala10 PABPN1-TurboID (UniProt Q8CCS6)
T1 sequence: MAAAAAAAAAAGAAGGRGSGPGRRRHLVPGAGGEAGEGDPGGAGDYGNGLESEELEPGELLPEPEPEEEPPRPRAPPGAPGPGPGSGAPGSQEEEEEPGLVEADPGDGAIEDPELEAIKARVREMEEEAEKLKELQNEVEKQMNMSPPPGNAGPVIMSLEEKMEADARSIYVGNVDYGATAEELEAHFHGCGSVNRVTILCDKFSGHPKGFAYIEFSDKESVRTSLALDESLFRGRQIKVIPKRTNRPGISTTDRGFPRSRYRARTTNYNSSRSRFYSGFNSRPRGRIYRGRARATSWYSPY

T2: Ala17 PABPN1-TurboID (UniProt Q8CCS6)
T2 sequence: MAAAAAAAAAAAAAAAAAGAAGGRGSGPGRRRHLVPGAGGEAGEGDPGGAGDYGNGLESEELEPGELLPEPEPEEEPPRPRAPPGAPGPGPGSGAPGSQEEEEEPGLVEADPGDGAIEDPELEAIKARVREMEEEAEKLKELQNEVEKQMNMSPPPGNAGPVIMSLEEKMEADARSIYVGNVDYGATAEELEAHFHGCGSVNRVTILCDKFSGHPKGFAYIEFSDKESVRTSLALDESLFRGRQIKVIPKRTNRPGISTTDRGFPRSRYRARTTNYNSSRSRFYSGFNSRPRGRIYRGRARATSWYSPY


Key:
[1] = target: T1, Ala10 PABPN1-TurboID; assay: proximity labelling; PABPN1-TurboID at near-native levels in C2C12 myotubes (doxycycline, biotin); streptavidin capture; label-free quantitative nanoLC-MS/MS against the Mus musculus database; three experiments; strict hits in at least two of three replicates and not in wild type controls
[2] = target: T2, Ala17 PABPN1-TurboID; assay: as above

Molecule | binding [1] | binding [2]
DDX3X (from UniProt Q62167 1-662) | binds | binds
NUDT21 (from UniProt Q9CQF3 1-227) | binds | binds
ZC3H11A (from UniProt Q6NZF1 1-792) | binds | binds
HNRNPK (from UniProt P61979 1-463) | binds | binds
NUP214 (from UniProt Q80U93 1-2085) | binds | binds
SYNCRIP (protein, UniProt Q7TMK9 1-623) MATEHVNGNGTEEPMDTTSAVIHSENFQTLLDAGLPQKVAEKLDEIYVAGLVAHSDLDERAIEALKEFNEDGALAVLQQFKDSDLSHVQNKSAFLCGVMKTYRQREKQGTKVADSSKGPDEAKIKALLERTGYTLDVTTGQRKYGGPPPDSVYSGQQPSVGTEIFVGKIPRDLFEDELVPLFEKAGPIWDLRLMMDPLTGLNRGYAFVTFCTKEAAQEAVKLYNNHEIRSGKHIGVCISVANNRLFVGSIPKSKTKEQILEEFSKVTEGLTDVILYHQPDDKKKNRGFCFLEYEDHKTAAQARRRLMSGKVKVWGNVGTVEWADPIEDPDPEVMAKVKVLFVRNLANTVTEEILEKSFSQFGKLERVKKLKDYAFIHFDERDGAVKAMEEMNGKDLEGENIEIVFAKPPDQKRKERKAQRQAAKNQMYDDYYYYGPPHMPPPTRGRGRGGRGGYGYPPDYYGYEDYYDYYGYDYHNYRGGYEDPYYGYEDFQVGARGRGGRGARGAAPSRGRGAAPPRGRAGYSQRGGPGSARGVRGARGGAQQQRGRGVRGARGGRGGNVGGKRKADGYNQPDTKRRQTNNQNWGSQPIAQQPLQGGDHSGNYGYKSENQEFYQDTFGQQWK | binds | binds
XAB2 (protein, UniProt Q9DCD2 1-855) MVVMARVPRSERPDLVFEEEDLPYEEEIMRNQFSVKCWLRYIEFKQGAPKPRLNQLYERALKLLPCSYKLWYRYLKARRAQVKHRCVTDPAYEDVNNCHERAFVFMHKMPRLWLDYCQFLMDQGRVTHTRRTFDRALRALPITQHSRIWPLYLRFLRSHPLPETAVRGYRRFLKLSPESAEEYIEYLKSSDRLDEAAQRLATVVNDERFVSKAGKSNYQLWHELCDLISQNPDKVQSLNVDAIIRGGLTRFTDQLGKLWCSLADYYIRSGHFEKARDVYEEAIRTVMTVRDFTQVFDSYAQFEESMIAAKMETASELGREEEDDVDLELRLARFEQLISRRPLLLNSVLLRQNPHHVHEWHKRVALHQGRPREIINTYTEAVQTVDPFKATGKPHTLWVAFAKFYEDNGQLDDARVILEKATKVNFKQVDDLASVWCQCGELELRHENYDEALKLLRKATALPARRAEYFDGSEPVQNRVYKSLKVWSMLADLEESLGTFQSTKAVYDRILDLRIATPQIVINYAMFLEEHKYFEESFKAYERGISLFKWPNVSDIWSTYLTKFISRYGGRKLERARDLFEQALDGCPPKYAKTLYLLYAQLEEEWGLARHAMAVYDRATRAVEPAQQYDMFNIYIKRAAEIYGVTHTRGIYQKAIEVLSDEHAREMCLRFADMECKLGEIDRARAIYSFCSQICDPRTTGAFWQTWKDFEVRHGNEDTIREMLRIRRSVQATYNTQVNFMASQMLKVSGSATGTVSDLAPGQSGMDDMKLLEQRAEQLAAEAERDQPPRAQSKIFFVRSDASREELAELAQQANPEEIQLGEDEDEDEMDLEPNEVRLEQQSVPAAVFGSLKED | binds | binds
ZC3H14 (protein, UniProt Q8BJ05 1-735) MEIGTEISRKIRSAIKGKLQELGAYVDEELPDYIMVMVANKKSQDQMTEDLSLFLGNNTIRFTVWLHGVLDKLRSVTTEPSSLKSPDASIFDSHVPSNKSSFSRGDERRHEAAVPPLAVSSSRPEKRDSRVSTSSQEQKSTNVRHSYDDGASTRLMSTVKPLREPAPSEDVIDIKPEPDDLIDEDLNFVQENPLSQKKPTVTLTYGSSRPSIEIYRPPASRNADTGTHLNRLQLHPQQSSAHAAKQLDVQSSQVSEAGRLCEPPVLSSVEDTYSPFFRNNLDKMSIEDENFRKRKLPVVSSVVKVKRFSHDGEEEEEDEDYGTRIGSLSSSVSVPAKPERRPSLPPSKQANKNLILKAISEAQESVTKTTNYSAVPQKQTLPVAPRTRTSQEELLAEMVQGQNRAPRISPPVKEEEAKGDNTGKSQGTQQRQLLSRLQIDPVMVETMEMSQDYYDMESMVHADTRSFILKKPKLSEEIVVTPNQDSGMKTADALRVLSGHLMQTRDLVQPDKPASPKFIVTLDGVPSPPGYMSDQEEEMCFEGMKPVNQTSASNKGLRGLLHPQQLHLLSRQLEDPDGSFSNAEMTDLSVAQKPEKLLERCKYWPACKNGDECVYHHPISPCKAFPNCKFAEKCLFVHPNCKYDTKCTKADCPFTHMSRRASILTPKPVSSPAPSSNGQLCRYFPACKKMECPFYHPKHCRFNTQCTRPDCTFYHPTITVPPRHALKWIRPQSSE | binds | binds
ZC3HAV1 (protein, UniProt Q3UPF5 1-996) MTDPEVFCFITKILCAHGGRMTLEELLGEISLPEAQLYELLKAAGPDRFVLLETGDQAGITRSVVATTRARVCRRKYCQRPCDSLHLCKLNLLGRCHYAQSQRNLCKYSHDVLSEQNFQVLKNHELSGLNQEELAVLLVQSDPFFMPEICKSYKGEGRKQICGQPQPCERLHICEHFTRGNCSYLNCLRSHNLMDRKVLAIMREHGLSSDVVQNIQDICNNKHTRRNPPSMRAPHPHRRGGAHRDRSKSRDRFHHNSLEVLSTVSPLGSGPPSPDVTGCKDPLEDVSADVTQKFKYLGTQDRAQLSSVSSKAAGVRGPSQMRASQEFLEDGDPDGLFSRNRSDSSTSRTSAAGFPLVAAQRNEAGAMKMGMPSGHHVEVKGKNEDIDRVPFLNSYIDGVTMEEATVSGILGKRATDNGLEEMILSSNHQKSVAKTQDPQTAGRITDSGQDTAFLHSKYEENPAWPGTSTHNGPNGFSQIMDETPNVSKSSPTGFGIKSAVTGGKEAVYSGVQSLRSHVLAMPGETTTPVQGSNRLPPSPLSSSTSHRVAASGSPGKSSTHASVSPASEPSRMMMMMSDPAEYSLCYIVNPVSPRMDDHGLKEICLDHLYRGCQQVNCNKNHFHLPYRWQLFILPTWMDFQDMEYIERAYCDPQIEIIVIEKHRINFKKMTCDSYPIRRLSTPSFVEKTLNSVFTTKWLWYWRNELNEYTQYGHESPSHTSSEINSAYLESFFHSCPRGVLQFHAGSQNYELSFQGMIQTNIASKTQRHVVRRPVFVSSKDVEQKRRGPDHQPVMPQADALTLFSSPQRNASTVSSNEYEFIELNNQDEEYAKISEQFKASMKQFKIVTIKRIWNQKLWDTFERKKQKMKNKTEMFLFHAVGRIHMDYICKNNFEWILHGNREIRYGKGNYFTKEAMYSHKSCSYDSRGTVMFVARVLVGSVIEGNMTLSSPPALYDSCVDTRLNPSVFVIFRKEQIYPEYVIEYMELEKEKGCIIS | binds | binds
RBM26 (protein, UniProt Q6NZN0 1-1012) MVSKMIIENFEALKSWLSKTLEPICDADPSALAKYVLALVKKDKSEKELKALCIDQLDVFLQKETQIFVEKLFDAVNTKSYLPPPEQPSSGSLKVDFLQHQEKDIKKEELTKEEEREKKFSRRLNHSPPQSSSRYRDNRSRDERKKDDRSRKRDYDRNPPRRDSYRDRYNRRRGRSRSYSRSRSRSWSKERLRDRDRDRSRTRSRSRTRSRERDLVKPKYDLDRTDPLENNYTPVSSVSNISSGHYPVPTLSSTITVIAPTHHGNNTTESWSEFHEDQVDHNSYVRPPMPKKRCRDYDEKGFCMRGDMCPFDHGSDPVVVEDVNLPGMLPFPAQPPVVEGPPPPGLPPPPPILTPPPVNLRPPVPPPGPLPPSLPPVTGPPPPLPPLQPSGMDAPPNSATSSVPTVVTTGIHHQPPPAPPSLFTAVFVLPDTYDTDGYNPEAPSITNTSRPMYRHRVHAQRPNLIGLTSGDMDLPPREKPPNKSSMRIVVDSESRKRTIGSGEPGVSTKKTWFDKPNFNRTNSPGFQKKVQFGNENTKLELRKVPPELNNISKLNEHFSRFGTLVNLQVAYNGDPEGALIQFATYEEAKKAISSTEAVLNNRFIKVYWHREGTTQQLQTTSPKVIQPLVQQPILPVVKQSVKERLGPVPSATTEPAEAQSATSELPQNVTKLSVKDRLGFVSKPSVSATEKVLSTSTGLTKTVYNPAALKAAQKTLSVSTPAVDNNEAQKKKQEALKLQQDVRKRKQEILEKHIETQKMLISKLEKNKTMKSEDKAEIMKTLEILTKNITKLKDEVKSTSPGRCLPKSIKTKTQMQKELLDTELDLYKKMQAGEEVTELRRKYTELQLEAAKRGILSSGRGRGIHTRGRGTAHGRGRGRGRGRGVPGHAVVDHRPRALEISAFTESDREDLLPHFAQYGEIEDCQIDDASLHAIITFKTRAEAEAAAIHGARFKGQDLKLAWNKPIANMSAVDTEEAEPDEEEFQEESLVDDSLLQDDDEEEEDNESRSWRR | binds | binds
ASAH1 (protein, UniProt Q9WV54 19-394) QAQDVPPWTEDCRKSTYPPSGPTYRGPVPWHTINLDLPPYKRWHELLAQKAPALRILVNSITSLVNTFVPSGKLMKMVDQKLPGMIGSLPDPFGEEMRGIADVTGIPLGEIISFNIFYELFTMCTSIITEDEKGHLLHGRNMDFGIFLGWNINNNTWVVTEELKPLTVNLDFQRNNKTVFKATSFVGYVGMLTGFKPGLFSLSLNERFSINGGYLGILEWMFGRKDAQWVGFITRSVLENTTSYEEAKNTLTKTKIMAPVYFILGGKKSGEGCVITRERKESLDVYELDPKHGRWYVVQTNYDRWKNTLFIDDRRTPAKKCLNHTTQKNLSFATIYDVLSTKPVLNKLTVFTTLMDVTKGQFESHLRDCPDPCIGW | binds | –
